Test results published in patent publication US7074908.
These are yes or no findings as the source states them, for the method shown. In cells and extracts the contact can be indirect. Some entries that bind do so weakly or less than the wild type.

Protein sequences, listed by entry. Tags and fused reporters are not part of them.
UniProt Q02248: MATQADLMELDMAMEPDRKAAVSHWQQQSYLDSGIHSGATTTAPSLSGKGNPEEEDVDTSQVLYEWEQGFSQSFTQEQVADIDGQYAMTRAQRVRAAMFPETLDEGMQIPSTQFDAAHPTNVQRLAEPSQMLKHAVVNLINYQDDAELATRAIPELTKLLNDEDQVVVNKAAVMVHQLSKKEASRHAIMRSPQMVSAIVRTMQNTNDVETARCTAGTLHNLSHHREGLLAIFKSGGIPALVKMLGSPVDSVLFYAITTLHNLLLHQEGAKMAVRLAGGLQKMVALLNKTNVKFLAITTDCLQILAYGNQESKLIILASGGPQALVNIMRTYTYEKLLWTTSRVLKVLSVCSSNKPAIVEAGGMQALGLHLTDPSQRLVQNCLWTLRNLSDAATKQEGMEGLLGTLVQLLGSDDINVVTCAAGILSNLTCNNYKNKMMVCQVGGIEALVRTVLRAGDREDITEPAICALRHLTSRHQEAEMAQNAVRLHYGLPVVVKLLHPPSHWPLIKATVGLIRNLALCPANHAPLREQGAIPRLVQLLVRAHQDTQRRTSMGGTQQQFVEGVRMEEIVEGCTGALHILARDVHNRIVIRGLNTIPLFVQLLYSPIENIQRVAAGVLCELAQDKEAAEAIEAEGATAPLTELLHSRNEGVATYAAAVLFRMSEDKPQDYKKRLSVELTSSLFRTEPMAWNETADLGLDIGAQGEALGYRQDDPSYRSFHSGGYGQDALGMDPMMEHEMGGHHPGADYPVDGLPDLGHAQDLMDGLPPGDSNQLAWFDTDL

Key:
[1] = molecular target: β-catenin (mouse) (UniProt Q02248); experiment: co-immunoprecipitation from lysates of co-transfected COS-1 cells
[2] = molecular target: β-catenin (mouse) (UniProt Q02248); experiment: co-immunoprecipitation with anti-β-catenin antibody from gel-filtration fraction of adult mouse heart extract

binding [1]: binds
binding [2]: binds
B1: murine Ozz protein (protein)
chain: MAAPSEHVGLGAPRSPARPEPPPTRFHQVHGANIRMDPSGTRATRVESFAHGVCFSREPLAPGQVFLVEIEEKELGWCGHLRLGLTALDPASLAAVPEFSLPDLVSLGHSWVFAITRHHNRVPREGQPEAEAAVPSGPQALLVEPYLRIEQFRIPRDRLVGRSRPGLYSHLLDQLYEQNVLPPTARRSRLGVLFCPREDGTADMHIIINGEDMGPSARGLPAAQPLYAVVDVFASTKSVRLVQLEYGLPSLQTLCRLVIQKRVVHRLAIDVLHLPKGLKDFCKYE
